Source: patent publication US10918648B2, “Estrogen receptor modulator combinations” (The Regents of the University of California, priority 2016, dated 2021)
For at least one compound, name, drawing or mass did not settle the structure.

Experiments:
[1] = system: MAPK: ERK-1 (p44) and ERK-2 (p42); test: Estrogen-induced MAPK phosphorylation, Western blot in MCF-7 cells; type: cell-based, human; conditions: MCF-7 parent cells, 1 nM estradiol (E2); antagonists pre-incubated at 1000 nM; FIG. 7A
Procedure: ERD inhibition of phosphorylation of MAPK, at both extracellular signal-regulated kinases ERK-1 (p44) and ERK-2 (p42) and downstream effects. […] Thus, we measured estrogen-induced phosphorylation of MAPK by established methods (9,15,16). Briefly, MCF-7 parental cells were estrogen deprived for 48 hrs, then treated with 1 nM estradiol-1713 in the presence of new compounds (10 nM-10 μM) to be tested for antagonist activity. After treatments, cell lysates were separated by SDS-PAGE followed by Western blot using a polyclonal antibody directed to phospho-p44/p42 MAP kinase (Thr202/Tyr204) (Cell Signaling). Immunodetection with antibody against total p44/p42 (Cell Signaling) was done as a control for gel loading. […] ERD S15 was as effective as fulvestrant in inhibiting the rapid estrogen-induced MAPK phosphorylation in breast tumor cells in vitro. […] E2 but not vehicle (CN) induced rapid phosphorylation of ERK-1 (p44) and ERK-2 (p42). This activation was prevented when cells were pre-incubated with 1000 nM ICI 182,780 (ICI; Faslodex) or 1000 nM compound S15 in the presence of estradiol (E2).

[2] = system: Rb serine-780; test: Rb serine-780 phosphorylation, Western blot in A549 cells; type: cell-based, human; conditions: 24 h, 1% DCC-FBS, 1 nM E2, 1 nM androstenedione, 10 nM testosterone, 10 μM letrozole, 100 nM palbociclib, FIG. 4C
Procedure: FIG. 4C. […] Cells were treated 24 h in phenol red-free RPMI with 1% DCC-FBS with vehicle control (CON), 1 nM estradiol-17β (E2), 1 nM androstenedione (And), 10 nM testosterone (Tes), 10 μM letrozole (AI), 100 nM palbociclib (Plbo) or both Plbo+AI. After 24 hr, cell lysates subjected to Western blot with antibody to phosphoserine-780 Rb or total Rb (Cell Signaling) (20). GAPDH is used as loading control.
To investigate the antitumor efficacy of CDK 4/6 inhibitor palbociclib in NSCLC cells, we assessed the effects of palbociclib alone and in combination with the hormonal therapeutic letrozole (see FIGS. 4B and 5B). The potential mechanism of action of palbociclib and letrozole in NSCLC cells was investigated by assay of the effects of these agents alone and combined on phosphorylation of Rb serine-780

[3] = system: A549 NSCLC cells; test: NSCLC cell proliferation in vitro (MTS assay); type: cell-based, human; conditions: A549, 72 hrs; single agents and palbociclib (10 or 100 nM)/letrozole (10 μM); FIG. 6B
[4] = system: Tamoxifen-resistant human MCF-7 breast cancer cells; test: Endocrine-resistant breast cancer cell proliferation in vitro; type: cell-based; conditions: 72 hrs; 50 nM Palbociclib, 10 nM S128, or both; P<0.001 vs control and 100 nM tamoxifen; FIG. 10
Procedure: Tamoxifen-resistant human MCF-7 breast cancer cells were treated in vitro with control vehicle (CON), 100 nM tamoxifen (TAM), 50 nM Palbociclib (Pb) or 10 nM S128 or with Palbociclib in combination with S128 (S128+Pb) over 72 hrs. […] (FIG. 10)

Row | SMILES | phosphorylation of MAPK (ERK-1 p44 and ERK-2 p42) [1] | phosphorylation of Rb serine-780 [2] | inhibition of NSCLC cell proliferation [3] | endocrine-resistant breast cancer cell proliferation [4]
1 | C[C@]12CC[C@@H]3c4ccc(O)cc4CC[C@H]3[C@@H]1CC[C@@H]2O [estradiol, estradiol-17β] | induces rapid phosphorylation of MAPK | stimulate Rb phosphorylation | – | –
2 | CC(=O)c1c(C)c2cnc(Nc3ccc(N4CCNCC4)cn3)nc2n(C2CCCC2)c1=O [Palbociclib, palbociclib, reference compound] | – | – | dose-dependent inhibition | significantly different from control
